Measurements reported in PubChem BioAssay AID652259 (Drosophila RNAi Screening Center, 2013)
The screen tested about 22,000 reagents; this is an unselected part of those with a known target gene and a result. Of all reagents, 233 (1.1%) got an active call. 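Light values are raw, unnormalised plate reads; the ratio scores behind the reporter calls were not deposited.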 Unmarked entries are inactive. Not given: the amount of reagent, the time to read-out, the dose of the treatment.

Assay: 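Genome-wide hunt for genes that control Wingless pathway activity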 (primary screen)
Cell system: Drosophila clone 8 imaginal disc epithelial cells
Reagents: long dsRNA against Drosophila genes
Treatment: pathway stimulated by co-transfected Wingless expression plasmid
Measurement: 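Dual luciferase reads per well after Wingless plasmid stimulation: reporter firefly light and Renilla control light; activity is firefly divided by Renilla, a ratio not deposited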
Direction: firefly reporter light: higher = more Wg reporter light, before normalisation; Renilla control light: higher = more transfected or surviving cells
Hit rule: 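Strong candidates differ from their plate mean by at least two out of four per-plate statistical tests; weak candidates meet just one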
Meaning of the calls: active = candidate regulator (raises or lowers reporter); inactive = not a candidate

| gene | dsRNA | reporter change call, replicate 1 | firefly reporter light, replicate 1 | firefly reporter light, replicate 2 | Renilla control light, replicate 1 | Renilla control light, replicate 2 |
| --- | --- | --- | --- | --- | --- | --- |
| CG14352 (GeneID 33341) | DRSC00382 | – | 2416 | 5148 | 820 | 1728 |
| nuf (GeneID 39572) | DRSC11379 | – | 6761 | – | 2450 | – |
| nuf (GeneID 39572) | DRSC22524 | – | 6.19e5 | 6.18e5 | 2.13e5 | 1.87e5 |
| blp (GeneID 41937) | DRSC15757 | – | 17141 | – | 4007 | – |
| Spps (GeneID 42882) | DRSC15856 | – | 1992 | 4443 | 865 | 928 |
| Mst57Db (GeneID 43122) | DRSC21551 | – | 9.06e5 | 8.57e5 | 4.23e5 | 4.03e5 |
| mfas (GeneID 41455) | DRSC16997 | – | 8421 | – | 2866 | – |
| Muc68D (GeneID 39326) | DRSC10569 | – | 3113 | – | 1813 | – |
| CG12159 (GeneID 35741) | DRSC06114 | – | 2377 | 6832 | 624 | 2275 |
| Mal-A5 (GeneID 35828) | DRSC07232 | – | 7609 | – | 3264 | – |
| tn (retired record) (GeneID 44536) | DRSC05768 | – | 14233 | – | 8881 | – |
| tn (retired record) (GeneID 44536) | DRSC06532 | – | 10277 | – | 4486 | – |
| CG3308 (GeneID 42527) | DRSC15474 | – | 3270 | 7398 | 1144 | 2515 |
| crq (GeneID 33219) | DRSC00810 | – | 3676 | 7321 | 1297 | 2848 |
| CG5390 (GeneID 34383) | DRSC02855 | – | 2274 | 7833 | 781 | 4020 |
| BomS6 (GeneID 50206) | DRSC21676 | – | 7.85e5 | 7.90e5 | 3.76e5 | 3.13e5 |
| GluRIB (GeneID 44484) | DRSC10258 | – | 7364 | – | 4976 | – |
| GluRIB (GeneID 44484) | DRSC11177 | – | 6193 | – | 3307 | – |
| CG2816 (GeneID 33595) | DRSC00539 | Wg reporter activity raised | 6120 | 8328 | 884 | 2485 |
| CG31245 (GeneID 42316) | DRSC15498 | – | 12053 | – | 2581 | – |
| CG8248 (GeneID 35888) | DRSC07124 | – | 6514 | – | 2528 | – |
| CG5250 (GeneID 42308) | DRSC15752 | – | 15460 | – | 3922 | – |
| Hsp26 (GeneID 39075) | DRSC11189 | – | 4360 | – | 1977 | – |
| Ufsp2 (GeneID 39687) | DRSC10231 | – | 2928 | – | 1328 | – |
| CG8668 (GeneID 34107) | DRSC03101 | – | 9112 | – | 4531 | – |
| CG31337 (GeneID 318688) | DRSC12981 | – | 3476 | – | 987 | – |
| CR14117 (GeneID 39473) | DRSC10121 | – | 4208 | – | 2070 | – |
| Neb-cGP (GeneID 50417) | DRSC17991 | – | 26435 | – | 13740 | – |
| CG14439 (GeneID 31614) | DRSC17931 | – | 16464 | – | 9522 | – |
| spz6 (GeneID 37956) | DRSC04533 | – | 11387 | – | 4252 | – |
| CG9436 (GeneID 35586) | DRSC05005 | – | 10477 | – | 2001 | – |
| St3 (GeneID 37743) | DRSC04098 | – | 4149 | 10745 | 612 | 2211 |
| St3 (GeneID 37743) | DRSC04505 | – | 13482 | – | 3344 | – |
| CG14448 (GeneID 40497) | DRSC11705 | – | 12696 | – | 3625 | – |
| regucalcin (GeneID 32165) | DRSC18908 | – | 3261 | – | 1373 | – |
| regucalcin (GeneID 32165) | DRSC20366 | – | 15600 | – | 7282 | – |
| Atg12 (GeneID 39383) | DRSC09803 | – | 9412 | – | 3923 | – |
| Drsl1 (GeneID 326207) | DRSC22490 | – | 5.47e5 | 5.39e5 | 1.90e5 | 52947 |
| Vps11 (GeneID 317987) | DRSC11909 | – | 5748 | – | 2519 | – |
| Vps11 (GeneID 317987) | DRSC21579 | – | 5.24e5 | 5.39e5 | 2.10e5 | 1.94e5 |

A portion of the results above:
| gene | dsRNA | reporter change call, replicate 1 | firefly reporter light, replicate 1 | firefly reporter light, replicate 2 | Renilla control light, replicate 1 | Renilla control light, replicate 2 |
| --- | --- | --- | --- | --- | --- | --- |
| nuf (GeneID 39572) | DRSC11379 | – | 6761 | – | 2450 | – |
| nuf (GeneID 39572) | DRSC22524 | – | 6.19e5 | 6.18e5 | 2.13e5 | 1.87e5 |
| blp (GeneID 41937) | DRSC15757 | – | 17141 | – | 4007 | – |
| Spps (GeneID 42882) | DRSC15856 | – | 1992 | 4443 | 865 | 928 |
| Mst57Db (GeneID 43122) | DRSC21551 | – | 9.06e5 | 8.57e5 | 4.23e5 | 4.03e5 |
| mfas (GeneID 41455) | DRSC16997 | – | 8421 | – | 2866 | – |
| Muc68D (GeneID 39326) | DRSC10569 | – | 3113 | – | 1813 | – |
| CG12159 (GeneID 35741) | DRSC06114 | – | 2377 | 6832 | 624 | 2275 |

The list goes on.
| gene | dsRNA | reporter change call, replicate 1 | firefly reporter light, replicate 1 | firefly reporter light, replicate 2 | Renilla control light, replicate 1 | Renilla control light, replicate 2 |
| --- | --- | --- | --- | --- | --- | --- |
| Dso1 (GeneID 50126) | DRSC21815 | – | 3.42e5 | 3.06e5 | 1.43e5 | 1.41e5 |
| cindr (GeneID 43654) | DRSC14126 | – | 1922 | 9612 | 884 | 2818 |
| cindr (GeneID 43654) | DRSC14298 | – | 4716 | – | 1517 | – |
| Smurf (GeneID 36999) | DRSC07641 | – | 5205 | – | 1779 | – |
| CG42542 (GeneID 8674000) | DRSC15549 | – | 5684 | – | 2471 | – |
| CG42542 (GeneID 8674000) | DRSC22264 | – | 3.61e5 | 4.52e5 | 1.56e5 | 1.71e5 |
| CG14965 (GeneID 38388) | DRSC08424 | – | 8432 | – | 3350 | – |
| spt4 (GeneID 36387) | DRSC07696 | – | 11705 | – | 3764 | – |
| CG6753 (GeneID 41557) | DRSC16108 | – | 22560 | – | 6000 | – |
| CG30076 (GeneID 246438) | DRSC05494 | – | 17378 | – | 14899 | – |
| Cyp9f2 (GeneID 41520) | DRSC16635 | – | 9913 | – | 3745 | – |
| vlc (GeneID 46078) | DRSC04922 | – | 2448 | 7202 | 836 | 2505 |
| Spc105R (GeneID 40300) | DRSC11663 | – | 14161 | – | 2996 | – |
| CG9498 (GeneID 33885) | DRSC03235 | – | 2343 | 6997 | 248 | 2337 |
| deltaCOP (GeneID 45250) | DRSC18760 | – | 1570 | 5448 | 746 | 1947 |
| CG6083 (GeneID 39305) | DRSC10580 | – | 4566 | – | 2012 | – |
| CG42656 (GeneID 10178806) | DRSC12472 | – | 3917 | – | 770 | – |
| CG34030 (GeneID 3885636) | DRSC08866 | – | 2313 | – | 1571 | – |
| IntS8 (GeneID 36886) | DRSC07417 | – | 10834 | – | 4291 | – |
| mxc (GeneID 31869) | DRSC17819 | – | 20576 | – | 8930 | – |
| CG13488 (GeneID 37496) | DRSC04133 | – | 2098 | 5900 | 732 | 3389 |
| CG34386 (GeneID 5740303) | DRSC06467 | Wg reporter activity raised (active) | 10112 | – | 1264 | – |
| CG34386 (GeneID 5740303) | DRSC06468 | – | 5090 | – | 1741 | – |
| CG13727 (GeneID 39931) | DRSC10055 | – | 8349 | – | 3907 | – |
| CG32683 (GeneID 31970) | DRSC17990 | – | 23341 | – | 10176 | – |
| CG32683 (GeneID 31970) | DRSC18232 | – | 14213 | – | 10240 | – |
| CG32683 (GeneID 31970) | DRSC18233 | – | 11850 | – | 10263 | – |
| CG13955 (GeneID 35968) | DRSC06443 | – | 2896 | 8395 | 805 | 4584 |
| CG31223 (GeneID 326127) | DRSC15115 | – | 2250 | 6509 | 985 | 1409 |
| BomS1 (GeneID 37100) | DRSC22678 | – | 7.95e5 | 7.79e5 | 2.60e5 | 2.44e5 |
| Ac76E (GeneID 40180) | DRSC09642 | – | 1778 | – | 1066 | – |
| Ac76E (GeneID 40180) | DRSC09662 | – | 8354 | – | 3476 | – |
| CG11362 (GeneID 37574) | DRSC04106 | – | 4107 | 8757 | 832 | 2180 |
| CG11362 (GeneID 37574) | DRSC22032 | – | 7.83e5 | 7.92e5 | 3.61e5 | 3.53e5 |
| EloA (GeneID 42749) | DRSC16109 | – | 1444 | 4422 | 730 | 1843 |
| Mip (GeneID 39933) | DRSC10639 | – | 3848 | – | 837 | – |
| GatB (GeneID 42861) | DRSC15807 | – | 16138 | – | 13750 | – |
| eIF3f2 (GeneID 35547) | DRSC04903 | – | 3955 | 7715 | 1249 | 3712 |
| CG2889 (GeneID 31977) | DRSC18236 | – | 21461 | – | 8164 | – |
| CG7857 (GeneID 39671) | DRSC10925 | – | 5898 | – | 2428 | – |
| Cndp2 (GeneID 35507) | DRSC04873 | – | 1954 | 2921 | 528 | 1449 |
| Pc (GeneID 40358) | DRSC11873 | – | 19496 | – | 3186 | – |
| NimC1 (GeneID 34816) | DRSC01879 | – | 1484 | 6297 | 1082 | 2658 |
| Cpr66Cb (GeneID 38940) | DRSC10769 | – | 1008 | 5120 | 939 | 2992 |
| CG8117 (GeneID 32499) | DRSC20082 | – | 20688 | – | 10763 | – |
| Eig71Ek (GeneID 39712) | DRSC11158 | – | 10104 | – | 3858 | – |
| brv1 (GeneID 40116) | DRSC11076 | – | 8980 | – | 2777 | – |
| nrv3 (GeneID 35408) | DRSC03097 | – | 5179 | – | 1637 | – |
| CG33137 (GeneID 36449) | DRSC22131 | – | 5.14e5 | 6.18e5 | 2.32e5 | 2.81e5 |
| Alg13 (GeneID 43443) | DRSC14864 | – | 13532 | 8.58e5 | 4626 | 3.33e5 |
| CG4757 (GeneID 41330) | DRSC14130 | – | 17363 | – | 4657 | – |
| hubl (GeneID 246567) | DRSC06825 | – | 4992 | 8477 | 720 | 2650 |
| CG12507 (GeneID 32580) | DRSC19463 | – | 16464 | – | 8416 | – |
